Assay results reported in article PMC8079276.
No constants are given. Whether binding was seen depends on the method and setting. Binding seen in cells or lysates may run through a third protein. Here binding means that the protein was enriched with, or labelled near, the bait; the list need not be complete. Sequences can lack the tags named with a protein.

T1: UDP-N-acetylglucosamine-peptide N-acetylglucosaminyltransferase (mouse (endogenous in MEFs)) (UniProt Q8CGY8)
T1 sequence: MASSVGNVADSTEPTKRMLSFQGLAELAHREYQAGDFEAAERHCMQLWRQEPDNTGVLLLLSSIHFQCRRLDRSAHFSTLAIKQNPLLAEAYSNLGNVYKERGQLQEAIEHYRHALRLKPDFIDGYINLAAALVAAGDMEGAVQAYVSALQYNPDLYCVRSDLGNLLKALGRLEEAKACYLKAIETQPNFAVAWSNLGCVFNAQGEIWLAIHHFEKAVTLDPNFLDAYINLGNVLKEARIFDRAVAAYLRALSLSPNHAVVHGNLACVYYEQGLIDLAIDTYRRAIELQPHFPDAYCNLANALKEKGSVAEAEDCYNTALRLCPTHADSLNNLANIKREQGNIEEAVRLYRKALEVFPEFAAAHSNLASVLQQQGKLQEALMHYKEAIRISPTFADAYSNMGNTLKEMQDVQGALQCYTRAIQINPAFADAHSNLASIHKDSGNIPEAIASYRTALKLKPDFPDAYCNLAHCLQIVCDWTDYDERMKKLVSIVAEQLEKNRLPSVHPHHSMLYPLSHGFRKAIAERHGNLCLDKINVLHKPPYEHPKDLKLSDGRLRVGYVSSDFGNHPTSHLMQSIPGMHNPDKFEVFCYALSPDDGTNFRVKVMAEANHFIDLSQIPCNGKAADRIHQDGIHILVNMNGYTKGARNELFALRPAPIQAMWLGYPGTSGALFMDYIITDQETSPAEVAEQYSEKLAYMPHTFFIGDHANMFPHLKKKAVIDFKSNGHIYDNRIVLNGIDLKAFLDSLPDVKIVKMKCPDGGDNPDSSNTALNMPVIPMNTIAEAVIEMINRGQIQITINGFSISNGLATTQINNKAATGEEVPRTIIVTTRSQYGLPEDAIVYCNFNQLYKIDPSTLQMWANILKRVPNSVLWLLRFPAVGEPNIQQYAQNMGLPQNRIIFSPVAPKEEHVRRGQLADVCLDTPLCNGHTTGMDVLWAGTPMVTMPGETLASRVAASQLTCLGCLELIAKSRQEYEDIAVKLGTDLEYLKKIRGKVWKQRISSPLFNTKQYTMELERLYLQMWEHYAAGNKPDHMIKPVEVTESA


Each binder was assayed against T1, UDP-N-acetylglucosamine-peptide N-acetylglucosaminyltransferase (mouse (endogenous in MEFs)) (assay: affinity purification with mass spectrometry; endogenous OGT immunoprecipitated (antibody AL24, protein G magnetic beads, TCL buffer: 50 mM Tris HCl, 150 mM NaCl, pH 7.5, 1% NP-40, 2 mM EDTA) from a 1:1:1 mix of SILAC-labelled lysates of WT, H2O2-treated (2.5 mM, 1.5 h) and OGT-null MEFs, precleared with rabbit IgG; in-gel trypsin digestion, LC-MS/MS; interactor if log2 WT or H2O2/null >=1 in 2 or more replicates).

Binder | binding
Protein transport protein Sec24C isoform X1 (protein, UniProt G3X972 1-1096) MNVNQSAPPVPPYGQNQPIYPGYHQSSYGGQPGPAAPATPYGAYNGPVPGYQQAPPQGVPRAPPSSGAPPASAAQVPCGQTTYGQFGQGDIQNGPSSTAQMQRVPGSQQFGPPLAPVVSQPAVLQPYGPPPTSTQVTAQLAGMQISGAVAQAPPPSGLGYGPPTSLASASGNFPNSGPYGSYPQSQAPPLSQAQGHPGVQPPLRSAPPLASSFTSPASGGPQMPSMTGLLPPGQGFGSLPVNQANHVSSPPAPALPPGTQMTGPPVPPPPPMHSPQQPGYQLQQNGSFGPARGPQPNYESPYPGAPTFGSQPGPPQPLPPKRLDPDAIPSPIQVIEDDRNNRGSEPFVTGVRGQVPPLVTTNFLVKDQGNASPRYIRCTSYNIPCTSDMAKQAQVPLAAVIKPLARLPPEEASPYVVDHGESGPLRCNRCKAYMCPLMTFIEGGRRFQCSFCSCVNDVPPQYFQHLDHTGKRVDAYDRPELSLGSYEFLATVDYCKNNKFPSPPAFIFMIDVSYNAIRTGLVRLLCEELKSLLDYLPREGGAEESAIRVGFVTYNKVLHFYNVKSSLAQPQMMVVSDVADMFVPLLDGFLVNVSESRAVITSLLDQIPEMFADTRETETVFAPVIQAGMEALKAAECAGKLFLFHTSLPIAEAPGKLKNRDDRKLINTDKEKTLFQPQTGTYQTLAKECVAQGCCVDLFLFPNQYVDVATLSVVPQLTGGSVYKYACFQVENDQERFLSDLRRDVQKVVGFDAVMRVRTSTGIRAVDFFGAFYMSNTTDVELAGLDGDKTVTVEFKHDDRLNEENGALLQCALLYTSCAGQRRLRIHNLALNCCTQLADLYRNCETDTLINYMAKFAYRAVLNSPVKTVRDTLITQCAQILACYRKNCASPSSAGQLILPECMKLLPVYLNCVLKSDVLQPGAEVTTDDRAYVRQLVSSMDVAETNVFFYPRLLPLTKSPLDSTAEPPAVRASEERLSSGDIYLLENGLNLFVWVGASVQQGVVQSLFNVSSFSQITSGLSVLPVLDNPLSKKVRGLIDSLRAQRMRYMKLIVVKQEDKLEMLFKHFLVEDKSLSGGASYVDFLCHMHKEIRQLLS | binds
Gtf2e2 (protein, UniProt Q9D902 1-292) MDPSLLRDRELFKKRALSTPVVEKRAVPSESPSSSSSKKKKAKVEHGGSSGSKQNSDHNNGSFNLKALSGSSGYKFGVLAKIVNYMKTRHQRGDTHPLTLEEILDETQHLDIGLKQKQWLMTEALVNNPKIEVVDGKYAFKPKYNLKDKKALLRLLDNHDQRGLGGILLEDIEEGLPNSQKAVKALGDQILFVSRPDKKKILFFNDKSCQFSVDEEFQKLWRSVTVDSMDEEKIEEYLKRQGISSMQESGPKKVASIQRRKKPASQKKRRFKTHNEHLAGVLKDYSDITPGK | binds
Hdlbp (protein, UniProt Q8VDJ3 1-1268) MSSVAVLTQESFAEHRSGLVPQQIKVATLNSEEENDPPTYKDAFPPLPEKAACLESAQEPAGAWSNKIRPIKASVITQVFHVPLEERKYKDMNQFGEGEQAKICLEIMQRTGAHLELSLAKDQGLSIMVSGKLDAVMKARKDIVARLQTQASATVPIPKEHHRFVIGKNGEKLQDLELKTATKIQIPRPDDPSNQIKITGTKEGIEKARHEVLLISAEQDKRAVERLEVEKAFHPFIAGPYNRLVGEIMQETGTRINIPPPSVNRTEIVFTGEKEQLAQAVARIKKIYEEKKKKTTTIAVEVKKSQHKYVIGPKGNSLQEILERTGVSVEIPPSDSISETVILRGEPEKLGQALTEVYAKANSFTVSSVSAPSWLHRFIIGKKGQNLAKITQQMPKVHIEFTEGEDKITLEGPTEDVNVAQEQIEGMVKDLINRMDYVEINIDHKFHRHLIGKSGANINRIKDQYKVSVRIPPDSEKSNLIRIEGDPQGVQQAKRELLELASRMENERTKDLIIEQRFHRTIIGQKGERIREIRDKFPEVIINFPDPAQKSDIVQLRGPKNEVEKCTKYMQKMVADLVENSYSISVPIFKQFHKNIIGKGGANIKKIREESNTKIDLPAENSNSETIIITGKRANCEAARSRILSIQKDLANIAEVEVSIPAKLHNSLIGTKGRLIRSIMEECGGVHIHFPVEGSGSDTVVIRGPSSDVEKAKKQLLHLAEEKQTKSFTVDIRAKPEYHKFLIGKGGGKIRKVRDSTGARIIFPAAEDKDQDLITIIGKEDAVREAQKELEALIQNLENVVEDYMLVDPKHHRHFVIRRGQVLREIAEEYGGVMVSFPRSGTQSDKVTLKGAKDCVEAAKKRIQEIIEDLEAQVTVECAIPQKFHRSVMGPKGSRIQQITRDYNVQIKFPDREENPVHSVEPSIQENGDEAGEGREAKETDPGSPRRCDIIIISGRKEKCEAAKEALEALVPVTIEVEVPFDLHRYIIGQKGSGIRKMMDEFEVNIHVPAPELQSDTIAITGLAANLDRAKAGLLDRVKELQAEQEDRALRSFKLSVTVDPKYHPKIIGRKGAVITQIRLEHEVNIQFPDKDDGNQPQDQITITGYEKNTEAARDAILKIVGELEQMVSEDVPLDHRVHARIIGARGKAIRKIMDEFKVDIRFPQSGAPDPNCVTVTGLPENVEEAIDHILNLEEEYLADVVDSEALQVYMKPPAHEESRAPSKGFVVRDAPWTSNSSEKAPDMSSSEEFPSFGAQVAPKTLPWGPKR | binds
Kdm2b (protein, UniProt Q6P1G2 1-1309) MEAEKDSGRRLRAIDRQRYDENEDLSDVEEIVSVRGFSLEEKLRSQLYQGDFVHAMEGKDFNYEYVQREALRVPLVFRDKDGLGIKMPDPDFTVRDVKLLVGSRRLVDVMDVNTQKGTEMSMSQFVRYYETPEAQRDKLYNVISLEFSHTKLEHLVKRPTVVDLVDWVDNMWPQHLKEKQTEATNALAEMKYPKVKKYCLMSVKGCFTDFHIDFGGTSVWYHVFRGGKIFWLIPPTLHNLALYEEWVLSGKQSDIFLGDRVERCQRIELKQGYTFFIPSGWIHAVYTPVDSLVFGGNILHSFNVPMQLRIYEIEDRTRVQPKFRYPFYYEMCWYVLERYVYCVTQRSYLTQEYQRELMLIDAPRKTSVDGFSSDSWLDMEEESCEQQPQEEEEEEEDKEEEGDGADKTPKPPTDDPTSPTSTPPEDQDSTGKKPKAPAIRFLKRTLSNESEESVKSTSMPTDDPKTPTGSPATEVSTKWTHLTEFELKGLKALVEKLESLPENKKCVPEGIEDPQALLEGVKNVLKEHVDDDPTLAITGVPVVSWPKKTAKNRVVGRPKGKLGPASAVKLAANRTTAGARRRRTRCRKCEACLRTECGECHFCKDMKKFGGPGRMKQSCIMRQCIAPVLPHTAVCLVCGEAGKEDTVEEEEGKFNLMLMECSICNEIIHPGCLKIKESEGVVNDELPNCWECPKCNHAGKTGKQKRGPGFKYASNLPGSLLKEQKMNRDNKEGQEPAKRRSECEEAPRRRSDEHPKKVPADGILRRKSDDVHLRRKRKYEKPQELSGRKRASSLQTSPGSSSHLSPRPPLGSSLSPWWRSSLTYFQQQLKPGKEDKLFRKKRRSWKNAEDRLSLANKPLRRFKQEPEDDLPEAPPKTRESDQSRSSSPTAGPSTEGAEGPEEKKKVKMRRKRRLVNKELSKELSKELNHEIQKTESTLAHESQQPIKSEPESENDEPKRPLSHCERPHRFSKGLNGTPRELRHSLGPGLRSPPRVMSRPPPSASPPKCIQMERHVIRPPPISPPPDSLPLDDGAAHVMHREVWMAVFSYLSHRDLCVCMRVCRTWNRWCCDKRLWTRIDLNRCKSITPLMLSGIIRRQPVSLDLSWTNISKKQLSWLINRLPGLRDLVLSGCSWIAVSALCSSSCPLLRTLDVQWVEGLKDAQMRDLLSPPTDNRPGQMDNRSKLRNIVELRLAGLDITDVSLRLIIRHMPLLSKLQLSYCNHINDQSINLLTAVGTTTRDSLTEVNLSDCNKVTDLCLSFFKRCGNICHIDLRYCKQVTKEGCEQFIAEMSVSVQFGQVEEKLLQKLS | binds
Pold1 (protein, UniProt P52431 1-1105) MDCKRRQGPGPGVPPKRARGHLWDEDEPSPSQFEANLALLEEIEAENRLQEAEEELQLPPEGTVGGQFSTADIDPRWRRPTLRALDPSTEPLIFQQLEIDHYVGSAPPLPEGPLPSRNSVPILRAFGVTDEGFSVCCHIQGFAPYFYTPAPPGFGAEHLSELQQELNAAISRDQRGGKELSGPAVLAIELCSRESMFGYHGHGPSPFLRITLALPRLMAPARRLLEQGVRVPGLGTPSFAPYEANVDFEIRFMVDADIVGCNWLELPAGKYVRRAEKKATLCQLEVDVLWSDVISHPPEGQWQRIAPLRVLSFDIECAGRKGIFPEPERDPVIQICSLGLRWGEPEPFLRLALTLRPCAPILGAKVQSYEREEDLLQAWADFILAMDPDVITGYNIQNFDLPYLISRAQALKVDRFPFLGRVTGLRSNIRDSSFQSRQVGRRDSKVISMVGRVQMDMLQVLLREHKLRSYTLNAVSFHFLGEQKEDVQHSIITDLQNGNEQTRRRLAVYCLKDAFLPLRLLERLMVLVNNVEMARVTGVPLGYLLTRGQQVKVVSQLLRQAMRQGLLMPVVKTEGSEDYTGATVIEPLKGYYDVPIATLDFSSLYPSIMMAHNLCYTTLLRPGAAQKLGLKPDEFIKTPTGDEFVKSSVRKGLLPQILENLLSARKRAKAELAQETDPLRRQVLDGRQLALKVSANSVYGFTGAQVGKLPCLEISQSVTGFGRQMIEKTKQLVESKYTVENGYDANAKVVYGDTDSVMCRFGVSSVAEAMSLGREAANWVSSHFPSPIRLEFEKVYFPYLLISKKRYAGLLFSSRSDAHDKMDCKGLEAVRRDNCPLVANLVTSSLRRILVDRDPDGAVAHAKDVISDLLCNRIDISQLVITKELTRAAADYAGKQAHVELAERMRKRDPGSAPSLGDRVPYVIIGAAKGVAAYMKSEDPLFVLEHSLPIDTQYYLEQQLAKPLLRIFEPILGEGRAESVLLRGDHTRCKTVLTSKVGGLLAFTKRRNCCIGCRSVIDHQGAVCKFCQPRESELYQKEVSHLNALEERFSRLWTQCQRCQGSLHEDVICTSRDCPIFYMRKKVRKDLEDQERLLQRFGPPGPEAW | binds
